Source: PubChem BioAssay AID1259415 (National Center for Advancing Translational Sciences (NCATS), 2018)
Screen size: about 410,000 compounds; about 18,000 (4.4%) were called active. This list was built around the results that the source calls inconclusive (neither active nor inactive); the mix of calls is not that of the screen. Rule as the data show it: active = activity change below about -60%; inconclusive = no clear call, values can overlap the other calls; inactive = above about -39%.
% is scaled to controls: 0 for no effect and ±100 for the full control effect.

Assay: qHTS Assay for inhibitors of the human cytomegalovirus (HCMV)
Settings: HFF cells, HCMV-luciferase reporter, 72 h; at 57.5 µM; active compounds read low
Procedure, shortened: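 Steps: HFFs plated, 16 h 37C; compounds added; HCMV-luciferase added to MOI 1 PFU/cell; 72 h 37C; OneGlo reagent, 5 min room temperature; luminescence read, normalized to controls.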
For COc1ccc(Nc2ncnc3c2c(C)c(C)n3CCO)cc1, the activity change, negative = inhibition was inactive: 167%. In the case of COc1ccc(/C(N)=N/OC(=O)c2ccc(C)c([N+](=O)[O-])c2)cc1OC, the activity change, negative = inhibition is reported as inactive: 14.9%. In the case of O=C(CN1CCC(n2nnc3cc(F)ccc32)CC1)Nc1ccccc1N1CCOCC1, the activity change, negative = inhibition is reported as inconclusive: -45.3%. In the case of CCOC(=O)c1sc2nc(C)nc(SC(C)C(=O)N(C)c3ccccc3)c2c1C (centres undefined), the activity change, negative = inhibition is reported as active: -64.5%. In the case of Cc1cc(C)n(-c2ccc(C(=O)OCC(=O)N(CC(C)C)C3CCS(=O)(=O)C3)cc2)n1 (centres undefined), the activity change, negative = inhibition is reported as active: -86.5%. In the case of CN(C)S(=O)(=O)c1cccc(C(=O)NCC2CCCCC2)c1, the activity change, negative = inhibition is reported as active: -78.2%. For C#CCN(C)CCCOc1ccc(Cl)cc1Cl, the activity change, negative = inhibition was inconclusive: -43.8%. With O=C1C=C(Nc2ccc(Cl)cc2)CC(c2ccc(Cl)cc2)C1 (centres undefined) the activity change, negative = inhibition was inconclusive: -53.6%. In the case of Cn1c(=O)c2c(nc(Sc3ncccn3)n2Cc2ccc(Cl)cc2)n(C)c1=O, the activity change, negative = inhibition is reported as active: -61%. For Cc1ccc(N(CC(=O)NN=C2CCN(C)CC2)S(=O)(=O)c2ccccc2)c(C)c1, the activity change, negative = inhibition was inconclusive: -57.8%. With Cc1nc(N2CCN(c3ccccn3)CC2)c2c(C)c(C(=O)Nc3ccc(Br)cc3C)sc2n1 the activity change, negative = inhibition was inconclusive: -44.3%. In the case of O=S(=O)(c1ccc2c(c1)OCCO2)N1CCC(c2nc3ccccc3s2)CC1, the activity change, negative = inhibition is reported as inconclusive: -54.3%. In the case of CSC(=Cc1ccc(C(=O)c2ccc(C)cc2)n1C)S(C)=O (centres undefined), the activity change, negative = inhibition is reported as inconclusive: -46%. In the case of Fc1ccccc1CSc1nnc2ccc(-c3ccncc3)nn12, the activity change, negative = inhibition is reported as inactive: -10.7%. In the case of CN(C)CCC(=O)N1c2ccccc2Sc2ccc(Cl)cc21, the activity change, negative = inhibition is reported as inconclusive: -51.5%. In the case of Cc1cccc(NC(=O)Cn2c(=O)n(Cc3nc(-c4ccccc4)no3)c(=O)c3ccccc32)c1, the activity change, negative = inhibition is reported as inconclusive: -55.2%. With CCCCCCc1cc2cc(-c3nnc(-c4ccccc4)o3)c(=O)oc2cc1O the activity change, negative = inhibition was active: -100%. With COc1ccccc1N1CCN(c2c3c(nc4nncn24)CCC3)CC1 the activity change, negative = inhibition was inconclusive: -42.9%. In the case of CCOc1ccc(-c2ccc(SCC(=O)NCC3CCCO3)nn2)cc1 (centres undefined), the activity change, negative = inhibition is reported as inactive: -16.2%. For C=C(C)COc1ccc(-c2[nH]ncc2-c2ccc(OC)c(OC)c2)c(O)c1, the activity change, negative = inhibition was inconclusive: -41.7%. For O=C(NCc1ccc(Cl)cc1)c1cc2cccc3c2n1CCS3, the activity change, negative = inhibition was inconclusive: 0%. With CC1CCCN(C(=O)c2ccc(CSc3nc4ccncc4n3Cc3ccccc3)cc2)C1 (centres undefined) the activity change, negative = inhibition was inconclusive: -57%. For Cc1nc2nc(SCC(=O)NCCCN3CCCC3)nn2c(C)c1Cc1ccccc1Cl, the activity change, negative = inhibition was inconclusive: -45.5%. In the case of O=c1[nH]c(O)c(N=Nc2cc(C(F)(F)F)ccc2Cl)c(=O)[nH]1, the activity change, negative = inhibition is reported as inconclusive: -47.4%. In the case of N=c1n(CCO)c2ccccc2n1CCOc1ccccc1, the activity change, negative = inhibition is reported as inconclusive: -41.7%. For Cc1ccc2nc(N/N=C\c3ccc([N+](=O)[O-])o3)nc(-c3ccccc3)c2c1, the activity change, negative = inhibition was inconclusive: -56.3%. In the case of COc1ccc(CNC(=O)c2cnc3sc4cc(OC)ccc4n3c2=O)cc1, the activity change, negative = inhibition is reported as inactive: 2.22%. In the case of O=C(COC(=O)CCC(=O)c1cccs1)NC(=O)c1ccc(OC(F)F)cc1, the activity change, negative = inhibition is reported as inconclusive: -45%. For CCc1ccc(C(CNC(=O)c2ccc3c(=O)n(-c4ccccc4F)c(=S)[nH]c3c2)N(C)C)cc1 (centres undefined), the activity change, negative = inhibition was inconclusive: -42.5%. With Cc1cc(C)n(-c2nnc(C)n2/N=C/c2ccccc2OCc2ccccc2Cl)n1 the activity change, negative = inhibition was inconclusive: -40%. With CC(Nc1ncnc2nc[nH]c12)c1ccccc1 (centres undefined) the activity change, negative = inhibition was inconclusive: -47.8%. In the case of CCn1c(C)nc2cc(C(=O)NNC(=S)Nc3ccccc3)ccc21, the activity change, negative = inhibition is reported as inconclusive: -52.4%. In the case of COC(=O)c1cc(NC(=O)c2cccc(F)c2)cc(C(=O)OC)c1, the activity change, negative = inhibition is reported as inactive: 38.3%. With CN1C(=O)/C(=C\c2ccccc2F)Sc2ccc(C(=O)NC3CCN(Cc4ccccc4)CC3)cc21 the activity change, negative = inhibition was active: -70.7%. In the case of Cc1onc(-c2ccccc2)c1C(=O)N1CCN(c2ncccc2C(F)(F)F)CC1, the activity change, negative = inhibition is reported as inconclusive: -60%. With COC(=O)c1[nH]c2ccccc2c1NC(=O)c1c(F)cccc1F the activity change, negative = inhibition was inactive: -12.7%. For CCN(CC)S(=O)(=O)c1ccc(C(=O)NCc2ccc3c(c2)OCO3)cc1, the activity change, negative = inhibition was inactive: -15.5%. For Cc1cccc(CCNC(=O)C2CCCN(S(=O)(=O)c3cnc[nH]3)C2)c1 (centres undefined), the activity change, negative = inhibition was inconclusive: -43.8%. For Cc1ccc(NC(=O)C2=C(c3ccccc3)S(=O)(=O)CCS2(=O)=O)cc1, the activity change, negative = inhibition was active: -98.8%. For O=C(N/N=C/c1ccc(Sc2nc3ccccc3[nH]2)o1)c1ccncc1, the activity change, negative = inhibition was inconclusive: -42.2%. For CC(C)Cn1nc(NC(=O)C(C)(C)C)c2cc3ccccc3nc21, the activity change, negative = inhibition was inconclusive: -57.3%. For CCN(CC)S(=O)(=O)c1cccc(-c2nnc(SCC(=O)NC)n2N)c1, the activity change, negative = inhibition was inconclusive: -56.6%. In the case of Cc1ccc2nc(NC(=O)C3CCCN(S(=O)(=O)c4cccc5nsnc45)C3)sc2c1 (centres undefined), the activity change, negative = inhibition is reported as inactive: -21.7%. For CCCn1nnc(NC(=S)NC(=O)Cc2ccccc2)n1, the activity change, negative = inhibition was inactive: 31.1%. For CC(C)CN(C(=O)COc1ccc([N+](=O)[O-])cc1)c1c(N)n(CC(C)C)c(=O)[nH]c1=O, the activity change, negative = inhibition was inconclusive: -44.2%. In the case of CC(=O)Oc1ccccc1N(C(C)=O)S(=O)(=O)c1ccc2ccccc2c1, the activity change, negative = inhibition is reported as inactive: -35.2%. With Cc1c(NC(=O)c2ccccc2NS(=O)(=O)c2ccc(F)cc2)c(=O)n(-c2ccccc2)n1C the activity change, negative = inhibition was inconclusive: -43.3%. In the case of CC(C)Oc1cccc(C(=O)C2CCCN(Cc3ccc(Oc4ncccn4)cc3)C2)c1 (centres undefined), the activity change, negative = inhibition is reported as inconclusive: -44.3%. With CCOc1ccc(-n2c(SCC(=O)Nc3ccc(Br)cc3)nc3n[nH]c(C)c3c2=N)cc1 the activity change, negative = inhibition was inactive: -0.244%. In the case of COCCn1c(CCC(=O)Nc2ccc(OC)c(OC)c2)nc2cccnc21, the activity change, negative = inhibition is reported as inactive: 1.24%. With O=C(OCC(=O)N1CCCC1=O)c1ncc(Cl)c(Cl)c1Cl the activity change, negative = inhibition was inactive: -4.92%. In the case of COC(=O)c1ccc(Cn2c(C)c(C(=O)NCc3cccc([N+](=O)[O-])c3)sc2=O)o1, the activity change, negative = inhibition is reported as inactive: 3.48%. For O=C(Cn1c2ncccc2c(=O)n1-c1ccccc1)NCc1ccccc1, the activity change, negative = inhibition was inconclusive: -46.3%. With CCCc1nc2sc3c(=O)n(N)cnc3c2c2c1CCCC2 the activity change, negative = inhibition was inconclusive: -55.8%. With CN(C1CCS(=O)(=O)C1)S(=O)(=O)c1ccccc1[N+](=O)[O-] (centres undefined) the activity change, negative = inhibition was inconclusive: -60%. For Cc1ccc(NC(=O)CN(C)C(=O)c2ccc(Cl)c([N+](=O)[O-])c2)cc1, the activity change, negative = inhibition was inconclusive: -43.6%. With O=C(NCc1ccc(F)cc1)C1CCN(c2cnccn2)CC1 the activity change, negative = inhibition was inconclusive: -57.5%. With O=C(C[C@H]1C[C@H](C(=O)N2CCCCC2)[C@@]2(CCc3ccccc3)c3[nH]c4cc(-c5ccco5)ccc4c3CCN2C1=O)NCCN1CCOCC1 the activity change, negative = inhibition was active: -101%. With COc1cc(-c2cnc3c(NC(C)=O)cc(-c4ccc(N5CCN(C)CC5)cc4)cn23)cc(OC)c1OC the activity change, negative = inhibition was inconclusive: -48.6%. In the case of COc1ccccc1CNC(=O)c1cc2cccc3c2n1CCS3, the activity change, negative = inhibition is reported as inconclusive: 0%. For CN(C)C(=O)c1ccc(NC(=O)COc2cccc3c2OC(C)(C)C3)cc1, the activity change, negative = inhibition was active: -101%. For CN(Cc1nccs1)C(=O)c1ccc(OC2CCN(Cc3ccccn3)CC2)cc1, the activity change, negative = inhibition was inconclusive: -48.5%. For COc1ccc(C2C3=C(CC(C)(C)CC3=O)N(C)C3=C2C(=O)CC(C)(C)C3)cc1, the activity change, negative = inhibition was inactive: 5.68%. In the case of O=C(CSc1nc2ccccc2n1S(=O)(=O)c1ccccc1)N1CCCC1, the activity change, negative = inhibition is reported as inactive: -26.4%. For Cc1cc(N2CCCC2)nc2ccc(NC(=S)NCCCN3CCC(C)CC3)cc12, the activity change, negative = inhibition was active: -88.4%. In the case of COc1ccc(C(=O)OCCN2CCOCC2)cc1, the activity change, negative = inhibition is reported as inactive: 21%. In the case of CCOC(=O)C1(CC2CCCCO2)CCN(S(=O)(=O)c2cccc(F)c2)CC1 (centres undefined), the activity change, negative = inhibition is reported as inconclusive: -54.3%. With Cc1c(C(=O)N2CCCC2)oc2c1-c1nn(CC(=O)NCc3ccccc3F)cc1CC2 the activity change, negative = inhibition was active: -64.5%. In the case of CC(C)c1ccc(N(CC(=O)NCc2ccc(F)cc2)C(=O)c2snc(C(N)=O)c2N)cc1, the activity change, negative = inhibition is reported as inconclusive: -45.1%. For CCOC(=O)Cc1cc(=O)n2[nH]c(C)c(-c3ccc(Cl)cc3)c2n1, the activity change, negative = inhibition was inconclusive: -46.7%. For CC(=O)c1nn(-c2cccc(Br)c2)cc1C(=O)c1ccc(Br)cc1, the activity change, negative = inhibition was inconclusive: -41.5%. With COc1ccc(C(C(=O)NC(C)(C)C)N(C(=O)CNC(=O)c2cccs2)c2ccc(C)cc2)cc1OC (centres undefined) the activity change, negative = inhibition was inactive: 41.3%. For CCOc1ccc(CN(CC)C(=O)c2ccc3c(c2)[nH]c(=O)c(=O)n3CC)cc1OC, the activity change, negative = inhibition was inactive: -5.13%. For Cc1cc(Cl)ccc1NC(=O)CCS(=O)(=O)c1ccc2c(c1)CC(C)N2C(=O)C1CC1 (centres undefined), the activity change, negative = inhibition was active: -65.1%. With Cc1ccc(S(=O)(=O)N(C)Cc2ccc(C(=O)N/N=C/c3ccc(OC(F)F)cc3OC(F)F)cc2)cc1 the activity change, negative = inhibition was inconclusive: -48.6%. With CC(C)(C)NC(=S)Nc1ccc(Nc2ccccc2)cc1 the activity change, negative = inhibition was inactive: -36.7%. With Cc1ccc(C)c(N(CC(=O)Nc2ccccc2C(=O)NCc2ccco2)S(=O)(=O)c2ccccc2)c1 the activity change, negative = inhibition was inactive: -36.4%. In the case of CN1c2ccccc2C(C)(C)[C@]12C=Cc1cc(O)ccc1O2, the activity change, negative = inhibition is reported as inconclusive: -48.4%. For CCOc1ccc(-n2c(C)c3c(C)nnc(C)c3c2C)cc1, the activity change, negative = inhibition was active: -62.2%. With Cc1cc(C(=O)COc2ccc(F)cc2Br)c(C)n1C1CC1 the activity change, negative = inhibition was inconclusive: -46.2%. For CC1CCN(CC(=O)Nc2ccc(Br)cc2[N+](=O)[O-])CC1, the activity change, negative = inhibition was inconclusive: -41.9%. In the case of CCOC(=O)C1(CC2CC2)CCN(Cc2ccc(OC)cc2F)CC1, the activity change, negative = inhibition is reported as inconclusive: -45.2%. In the case of Nc1nc(N)c2cc(CNc3ccc(Cl)c(Cl)c3)ccc2n1, the activity change, negative = inhibition is reported as active: -68.7%. With COc1ccc(-c2nnc(SCC(=O)c3ccc([N+](=O)[O-])cc3)o2)cc1OC the activity change, negative = inhibition was inactive: -3.2%.
